Some of the results follow. Most values lie at the level of the controls, where differences are scatter.

The chains behind the UniProt entries cited, without tags or fusion partners. Where a name states a change or a piece, a line headed by the entry shows the natural chain unless it says otherwise.
UniProt Q9H6D7: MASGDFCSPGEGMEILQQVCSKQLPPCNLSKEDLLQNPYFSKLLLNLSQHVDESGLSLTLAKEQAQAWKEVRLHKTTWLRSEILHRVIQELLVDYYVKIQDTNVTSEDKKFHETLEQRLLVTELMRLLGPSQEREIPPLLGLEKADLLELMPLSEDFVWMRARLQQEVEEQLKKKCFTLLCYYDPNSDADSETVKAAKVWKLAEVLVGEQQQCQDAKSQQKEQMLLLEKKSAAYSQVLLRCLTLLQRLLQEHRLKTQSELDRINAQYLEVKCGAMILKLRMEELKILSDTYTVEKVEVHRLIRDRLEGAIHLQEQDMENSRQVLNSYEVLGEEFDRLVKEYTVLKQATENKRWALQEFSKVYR
UniProt Q9H765, whole entry: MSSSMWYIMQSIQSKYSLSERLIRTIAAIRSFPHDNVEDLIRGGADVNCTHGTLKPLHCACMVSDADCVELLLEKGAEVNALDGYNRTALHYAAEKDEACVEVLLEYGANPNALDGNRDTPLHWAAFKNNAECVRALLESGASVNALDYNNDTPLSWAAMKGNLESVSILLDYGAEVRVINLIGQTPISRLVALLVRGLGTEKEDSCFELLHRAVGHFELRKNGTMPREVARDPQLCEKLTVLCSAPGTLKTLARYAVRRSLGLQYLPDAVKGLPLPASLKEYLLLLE
UniProt Q9H609: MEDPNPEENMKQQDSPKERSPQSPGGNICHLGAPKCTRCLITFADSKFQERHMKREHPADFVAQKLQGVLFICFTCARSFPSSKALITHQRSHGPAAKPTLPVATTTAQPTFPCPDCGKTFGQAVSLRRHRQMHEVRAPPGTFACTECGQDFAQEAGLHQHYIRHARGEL
UniProt Q9NPD8: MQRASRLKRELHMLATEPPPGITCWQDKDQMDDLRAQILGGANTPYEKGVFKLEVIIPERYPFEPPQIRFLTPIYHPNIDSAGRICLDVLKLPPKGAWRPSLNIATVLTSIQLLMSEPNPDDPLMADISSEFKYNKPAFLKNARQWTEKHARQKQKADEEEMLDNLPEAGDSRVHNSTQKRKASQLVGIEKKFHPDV
UniProt Q9H5N1: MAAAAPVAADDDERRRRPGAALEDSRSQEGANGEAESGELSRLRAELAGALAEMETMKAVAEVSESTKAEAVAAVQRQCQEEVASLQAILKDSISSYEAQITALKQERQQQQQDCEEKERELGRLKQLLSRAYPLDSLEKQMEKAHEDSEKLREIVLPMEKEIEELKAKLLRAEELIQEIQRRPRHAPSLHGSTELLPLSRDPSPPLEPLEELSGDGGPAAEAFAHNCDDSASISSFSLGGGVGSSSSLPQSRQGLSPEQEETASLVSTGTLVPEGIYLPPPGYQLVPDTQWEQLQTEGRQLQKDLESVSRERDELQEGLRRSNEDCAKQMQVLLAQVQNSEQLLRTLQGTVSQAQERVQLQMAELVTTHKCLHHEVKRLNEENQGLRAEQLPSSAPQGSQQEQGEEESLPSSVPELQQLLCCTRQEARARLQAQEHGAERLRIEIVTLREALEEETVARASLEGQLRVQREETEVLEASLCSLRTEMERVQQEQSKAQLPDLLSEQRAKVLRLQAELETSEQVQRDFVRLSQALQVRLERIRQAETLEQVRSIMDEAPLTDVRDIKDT
UniProt Q9NQG6: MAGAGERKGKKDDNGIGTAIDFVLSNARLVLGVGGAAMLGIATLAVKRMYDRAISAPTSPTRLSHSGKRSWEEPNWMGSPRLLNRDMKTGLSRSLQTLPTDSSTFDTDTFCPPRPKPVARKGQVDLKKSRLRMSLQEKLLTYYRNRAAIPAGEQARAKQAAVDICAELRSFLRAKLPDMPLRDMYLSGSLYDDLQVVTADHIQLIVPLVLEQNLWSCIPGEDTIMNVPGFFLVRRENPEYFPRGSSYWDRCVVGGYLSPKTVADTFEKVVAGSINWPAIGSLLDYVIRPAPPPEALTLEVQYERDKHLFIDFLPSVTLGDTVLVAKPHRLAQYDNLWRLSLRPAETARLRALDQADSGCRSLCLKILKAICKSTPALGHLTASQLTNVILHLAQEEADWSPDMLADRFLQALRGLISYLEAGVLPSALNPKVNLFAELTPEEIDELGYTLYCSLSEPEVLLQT
UniProt Q9H9L7: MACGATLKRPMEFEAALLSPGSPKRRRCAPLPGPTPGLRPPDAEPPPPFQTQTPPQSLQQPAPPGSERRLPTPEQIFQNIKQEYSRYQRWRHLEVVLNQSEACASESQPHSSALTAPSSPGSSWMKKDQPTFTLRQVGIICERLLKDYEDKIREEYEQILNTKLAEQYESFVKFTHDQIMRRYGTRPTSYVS
UniProt Q9H9L3: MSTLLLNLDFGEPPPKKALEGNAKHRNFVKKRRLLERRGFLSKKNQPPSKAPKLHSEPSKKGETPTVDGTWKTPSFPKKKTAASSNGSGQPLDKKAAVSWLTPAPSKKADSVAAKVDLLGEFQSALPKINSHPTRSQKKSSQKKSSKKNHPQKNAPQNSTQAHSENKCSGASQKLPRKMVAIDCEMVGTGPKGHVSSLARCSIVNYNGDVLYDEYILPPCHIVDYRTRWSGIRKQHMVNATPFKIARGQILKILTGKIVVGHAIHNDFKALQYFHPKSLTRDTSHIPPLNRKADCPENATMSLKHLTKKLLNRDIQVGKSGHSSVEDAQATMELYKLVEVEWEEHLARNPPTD
UniProt Q9HC44: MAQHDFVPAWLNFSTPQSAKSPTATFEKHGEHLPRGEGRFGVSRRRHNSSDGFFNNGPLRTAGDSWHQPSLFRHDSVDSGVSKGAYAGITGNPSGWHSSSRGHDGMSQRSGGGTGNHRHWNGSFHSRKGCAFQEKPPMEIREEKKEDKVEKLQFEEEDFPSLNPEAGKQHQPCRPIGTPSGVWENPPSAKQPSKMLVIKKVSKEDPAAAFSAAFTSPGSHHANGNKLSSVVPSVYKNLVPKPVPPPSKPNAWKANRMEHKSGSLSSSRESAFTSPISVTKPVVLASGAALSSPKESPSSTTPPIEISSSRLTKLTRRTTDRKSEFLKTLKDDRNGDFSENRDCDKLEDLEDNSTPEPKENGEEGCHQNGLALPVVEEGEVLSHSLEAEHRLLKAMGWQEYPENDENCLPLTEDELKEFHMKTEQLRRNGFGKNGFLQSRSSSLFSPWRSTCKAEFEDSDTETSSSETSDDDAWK

Compound in the assay: CN[C@@H]1C[C@H]2O[C@@](C)([C@@H]1OC)n1c3ccccc3c3c4c(c5c6ccccc6n2c5c31)C(=O)NC4 [staurosporine]
The assay is described as follows: log2 fold change of tryptic peptide abundance, ligand vs vehicle (limited proteolysis) (log2 ratio); higher = more trypsin-susceptible (destabilized). The conditions noted are these: ligand concentration: 20 uM; sample: K562 cleared lysate; digestion: 4 min, 22 C (HT-PELSA RT4min, Orbitrap Astral).
As for “UniProt Q9H6D7 (peptide sequence: LKTQSELDRINAQYLEVK, peptide start residue: 254)”, the log2 fold change is 0.494.

On to “UniProt Q9H765 (peptide sequence: EVARDPQLCEK, peptide start residue: 229)”, for which the log2 fold change was -0.415.

Regarding “ZNF576 (peptide sequence: SPQSPGGNICHLGAPK, peptide start residue: 20) (UniProt Q9H609)”, the log2 fold change turned out to be 0.138.

For the target “UBE2T (peptide sequence: GVFKLEVIIPERYPFEPPQIR, peptide start residue: 49) (UniProt Q9NPD8)”, the log2 fold change was determined as 0.198.

Take “RABEP2 (peptide sequence: AYPLDSLEK, peptide start residue: 132) (UniProt Q9H5N1)”: the log2 fold change was -0.132.

As to “UniProt Q9NQG6 (peptide sequence: AISAPTSPTR, peptide start residue: 53)”, the log2 fold change was 0.201.

With “AKIRIN1 (peptide sequence: LAEQYESFVK, peptide start residue: 164) (UniProt Q9H9L7)”, the log2 fold change is -0.159.

Consider “ISG20L2 (peptide sequence: SGHSSVEDAQATMELYK, peptide start residue: 320) (UniProt Q9H9L3)”, for which the log2 fold change is 0.37.

Take “GPBP1L1 (peptide sequence: NLVPKPVPPPSKPNAWK, peptide start residue: 237) (UniProt Q9HC44)”: the log2 fold change is 0.143.

The record behind these values is the supplement of paper PMC12819154, “High-throughput peptide-centric local stability assay extends protein–ligand identification to membrane proteins, tissues and bacteria” (Nature Structural & Molecular Biology, 2025).
